Measured values: patent publication US9029518B2, “Method of extracting kaempferol-based antioxidants from Solenostemma arghel” (priority 2012, dated 2015)
At least one compound was matched to its structure with a doubt left.

Key:
[1] = system: carrageenan-induced rat paw edema; experiment: Carrageenan-induced rat paw edema (anti-inflammatory); assay type: in vivo; conditions: dose 0.1 g/kg oral
Source text: The total alcohol (ethanol) extract was given at doses of 0.25, 0.5 and 1 g/kg, respectively, and fractions were given in doses of 0.25 g/kg. […]

[2] = system: acetic acid-induced writhes in mice; experiment: Acetic acid-induced writhes in mice (peripheral analgesic activity); assay type: in vivo

Row | SMILES | Paw thickness(mm) Mean ± S.D. ([1]; time 1 h) | Paw thickness(mm) Mean ± S.D. ([1]; time 2 h) | Paw thickness(mm) Mean ± S.D. ([1]; time 3 h) | Number of writhes Mean ± S.D. ([2]; dose 0.1 g/kg oral) | Number of writhes Mean ± S.D. ([2]; dose 0.05 g/kg)
1 | O=c1c(O[C@@H]2O[C@H](CO)[C@@H](O)[C@H](O)[C@H]2O)c(-c2ccc(O[C@@H]3O[C@H](CO)[C@@H](O)[C@H](O)[C@H]3O)cc2)oc2cc(O)cc(O)c12 [C1, kaempferol-3, 4′-diglucoside] | 1.04 ^a * ± 0.16 mm | 0.89 ^a * ± 0.14 mm | 1.39 ± 0.30 mm | 31.82 ^a * ± 2.32 | 
2 | C[C@H]1O[C@H](OC[C@H]2O[C@@H](Oc3c(-c4ccc(O)cc4)oc4cc(O)cc(O)c4c3=O)[C@H](O)[C@@H](O)[C@@H]2O)[C@@H](O)[C@@H](O)[C@@H]1O [C2, kaempferol-3-rutinoside] | 0.95 ^a * ± 0.16 mm | 0.93 ^a * ± 0.13 mm | 1.40 ^a * ± 0.22 mm | 24.10 ^a * ± 2.18 | 
3 | Cc1c(N(C)CS(=O)(=O)[O-])c(=O)n(-c2ccccc2)n1C.[Na+] [Methamizol, methamizol, reference compound] |  |  |  |  | 37.00 ± 5.89
